Reference: publication PMC7819943, “Rice protein-binding microarrays: a tool to detect cis-acting elements near promoter regions in rice”
Some of the results follow.

molecular target: T1, OsSMF1 (Oryza sativa, UniProt Q6ZLB0 1-436); test: protein-binding microarray (RPBM); PBS, 2% BSA, 51.3 ng/ul salmon testes DNA, 50 uM zinc acetate, 200 nM TF, 25 C, 1 h; high values mean tight binding; conditions: protein: recombinant; tags: N-terminal polyhistidine and DsRed monomer fusion (pET32a); chain copies: 2; label: CyDye5-dUTP incorporated in the synthesized complementary strand; 3' TTTTT single-stranded linker to array surface; dsDNA, one strand shown
T1 sequence: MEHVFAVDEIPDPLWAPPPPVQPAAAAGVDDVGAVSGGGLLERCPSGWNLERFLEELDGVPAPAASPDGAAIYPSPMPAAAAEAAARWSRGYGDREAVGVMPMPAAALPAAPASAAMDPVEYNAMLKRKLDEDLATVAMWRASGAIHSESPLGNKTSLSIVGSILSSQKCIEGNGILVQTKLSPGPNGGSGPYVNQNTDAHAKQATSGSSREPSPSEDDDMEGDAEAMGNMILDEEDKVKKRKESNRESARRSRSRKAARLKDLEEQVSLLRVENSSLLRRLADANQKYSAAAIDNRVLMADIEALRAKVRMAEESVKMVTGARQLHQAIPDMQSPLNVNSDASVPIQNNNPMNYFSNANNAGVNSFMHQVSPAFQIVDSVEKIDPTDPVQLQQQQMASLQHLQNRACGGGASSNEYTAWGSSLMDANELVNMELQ
Outline: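 The binding signal for each feature is its fluorescence intensity in arbitrary units. An Axon 4000B scanner was used to read a custom Agilent array that had been made double-stranded with Cy5-dUTP primer extension, blocked with 2% BSA, incubated at 25 °C for 1 h with 200 nM protein in PBS, 2% BSA, salmon testes DNA and 50 µM zinc acetate, and washed. The protein was an N-terminal polyhistidine–DsRed transcription factor fusion from E. coli BL21-CodonPlus, purified on Ni–NTA.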

| Sequence | binding signal |
| --- | --- |
| CTATCTGTCATCCACATGACGTATAAGTGACACGATAAGTCGGAGTCACCTAGTGCAG | 3750 fluorescence intensity (a.u.) |
| CGCGGCTGGCGTTGATGGCGGTGACGCGGCCCATGCATGGCGGAGTCACCTAGTGCAG | 5920 fluorescence intensity (a.u.) |
| AGTGATGCTGAACTTTATTCACATACCTACTCGTGGCATTCGGAGTCACCTAGTGCAG | 3840 fluorescence intensity (a.u.) |
| TCCATCGTCATCAAATTCATCGTATCCCTGGACGGGCAGACGGAGTCACCTAGTGCAG | 3250 fluorescence intensity (a.u.) |
| GCATCTACCCGTCCAACTCATTTATCAGCATGCAAATTTTCGGAGTCACCTAGTGCAG | 4800 fluorescence intensity (a.u.) |
| GGTCACCACTTGTCAAGTTGTCATCATCACTGGCCTACTCCGGAGTCACCTAGTGCAG | 3680 fluorescence intensity (a.u.) |
| AGATAATAATTATCAGTGGGTAATGATGTGGCACACTTACCGGAGTCACCTAGTGCAG | 11200 fluorescence intensity (a.u.) |
| AAGAAGAACAGATTAATCGCCCAGTCTCTGTCAGACAAGGCGGAGTCACCTAGTGCAG | 3400 fluorescence intensity (a.u.) |
| ACGACGAGACGACACACTTACAACGGCCGCCTCGGTCTCCCGGAGTCACCTAGTGCAG | 3240 fluorescence intensity (a.u.) |
| GCTGCCTCCACGTCTCCACCTCGCACCGCGCCAAGGCGGCCGGAGTCACCTAGTGCAG | 4520 fluorescence intensity (a.u.) |
| TTTATCTACGTGTTCATGTACTGCTACAATCGCCATAATTCGGAGTCACCTAGTGCAG | 4110 fluorescence intensity (a.u.) |
| TGGCCCATATTAGCCCATTGAGAGCCCAGATGACTCATGGCGGAGTCACCTAGTGCAG | 8280 fluorescence intensity (a.u.) |
| TCATCAGAAGTAGCGAGAGGGCAAGATCCGGAGAAGTAATCGGAGTCACCTAGTGCAG | 7740 fluorescence intensity (a.u.) |
| ACTCCGGTTTTATCCCACGTGGCGGCTGAGTCCCCACATGCGGAGTCACCTAGTGCAG | 14200 fluorescence intensity (a.u.) |
| CAAATGACATGGTAAGACAATACTACCACGTCAGCCAAAACGGAGTCACCTAGTGCAG | 11600 fluorescence intensity (a.u.) |
| TGATGGCCGGTGATCAGTGGCATGTGCATGTTATATTATTCGGAGTCACCTAGTGCAG | 3260 fluorescence intensity (a.u.) |
| ACTTTCTTGAATTTAATGCGTGACTCTCCATTCGTCCACACGGAGTCACCTAGTGCAG | 3620 fluorescence intensity (a.u.) |
| GTCCGGCTGGCGAGCATGCGGCACTCGGCGAGCAGGTCGTCGGAGTCACCTAGTGCAG | 26300 fluorescence intensity (a.u.) |
| AAGACAGATTCCACCACTGCCAAGTGCCAGCGCAGTCCTCCGGAGTCACCTAGTGCAG | 3720 fluorescence intensity (a.u.) |
| TATGTGAGATTTGTTACAACGAACAGGTAATTTAAAATTGCGGAGTCACCTAGTGCAG | 32400 fluorescence intensity (a.u.) |
| TCGTTGCTTGGCCACTGACTTGCGAGTTGCGACAATTCCTCGGAGTCACCTAGTGCAG | 3190 fluorescence intensity (a.u.) |

In a second layout: results already given
Sequence	binding signal
ACTCCGGTTTTATCCCACGTGGCGGCTGAGTCCCCACATGCGGAGTCACCTAGTGCAG	14200 fluorescence intensity (a.u.)
CAAATGACATGGTAAGACAATACTACCACGTCAGCCAAAACGGAGTCACCTAGTGCAG	11600 fluorescence intensity (a.u.)

Further entries

| Sequence | binding signal |
| --- | --- |
| TAATAGCTTACAGTAGGTAGGTAGATTCGTGTACGTGTGGCGGAGTCACCTAGTGCAG | 3240 fluorescence intensity (a.u.) |
| GCCCACGGCGCACACTTAGCGGTACACGTGTACGGCAGAGCGGAGTCACCTAGTGCAG | 7410 fluorescence intensity (a.u.) |
| GAGGACAGATCAAATGATTTTAATGACGAAACATGTGCTTCGGAGTCACCTAGTGCAG | 4096 fluorescence intensity (a.u.) |
| CTTGCTCGATTGCCGCCGCCAGGAACTGGTCATGCGTGTTCGGAGTCACCTAGTGCAG | 3210 fluorescence intensity (a.u.) |
| TGGGTCATATCTCATCCTAGGTAGAGTTATTTTGGGACGGCGGAGTCACCTAGTGCAG | 3160 fluorescence intensity (a.u.) |
| CGGTTCCGACAACAGCAGCCGCTGGGCGGAGCCATCGCCCCGGAGTCACCTAGTGCAG | 28000 fluorescence intensity (a.u.) |
| TAGATAATAAGCTCTGACATGTGGGACCCACGTATGAAAACGGAGTCACCTAGTGCAG | 3630 fluorescence intensity (a.u.) |
| CACGATCCATCATATCGCTTGAGCTAGCCACAACACACAACGGAGTCACCTAGTGCAG | 22100 fluorescence intensity (a.u.) |
| ACCTTGCCGCTCTATTCAGTAGCATGCTTGAGTGTCCGTGCGGAGTCACCTAGTGCAG | 3370 fluorescence intensity (a.u.) |
| GTAATAAGATACTTCGTCTCAACACGTCAAACTAGGTGAACGGAGTCACCTAGTGCAG | 3550 fluorescence intensity (a.u.) |
| TTCTCCTTGCCACGCATTGACATCTTCCTGAAACTTGGTGCGGAGTCACCTAGTGCAG | 8130 fluorescence intensity (a.u.) |
| TAGGCCCAAATGCCAGCCCAAGCACGTGTATGGGGCCGTACGGAGTCACCTAGTGCAG | 3250 fluorescence intensity (a.u.) |
| AACTCGATCCACGTCGCTCTCGCTCGCCACAGACACGGGCCGGAGTCACCTAGTGCAG | 4500 fluorescence intensity (a.u.) |
| AGTATTTTAAATCATATACAAGTACGTCACATCATCACTCCGGAGTCACCTAGTGCAG | 3720 fluorescence intensity (a.u.) |
| GTAGCTGAGTCAGTCGACCCACCCTGCCTAATGGGTATATCGGAGTCACCTAGTGCAG | 10400 fluorescence intensity (a.u.) |
| ACCACCACTGCCACTGTAGCGTCATGCTGTAACGCTCGCTCGGAGTCACCTAGTGCAG | 4940 fluorescence intensity (a.u.) |
| AAACTCGCGAGTTGGCCCCACGTGTCATCCTCACGACCGTCGGAGTCACCTAGTGCAG | 11400 fluorescence intensity (a.u.) |
| GCATATGTAAACCACCAACAGTCACCCACTCACCTGTTAACGGAGTCACCTAGTGCAG | 3970 fluorescence intensity (a.u.) |
| TTTTCAATATACTTGTAAAATTATAATGGTATAGTTGCAACGGAGTCACCTAGTGCAG | 28100 fluorescence intensity (a.u.) |
| TGTTCAGGATGTCCGGAGAATGATGGTGGAAAGGGGCCTCCGGAGTCACCTAGTGCAG | 3190 fluorescence intensity (a.u.) |
| GCATGCATTGCCTCTTGCTCGCCTACGTGGTAATGAAAACCGGAGTCACCTAGTGCAG | 6560 fluorescence intensity (a.u.) |
